Assay results: publication doi:10.1101/2022.03.14.484294
Results are given in words; binding and its absence hold for the method and conditions named. In cells and extracts the contact can be indirect. Some results given as binding are weak or reduced against the parent protein; the word gives no strength.

Amino acid sequences for entries named in this document (tags omitted).
UniProt P36404: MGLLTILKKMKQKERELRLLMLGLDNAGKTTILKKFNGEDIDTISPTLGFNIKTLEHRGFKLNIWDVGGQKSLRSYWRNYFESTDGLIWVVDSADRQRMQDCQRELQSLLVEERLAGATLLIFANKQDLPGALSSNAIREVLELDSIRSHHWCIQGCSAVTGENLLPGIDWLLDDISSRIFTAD

Molecular target: FLAG-tagged human PDE6D (human) (UniProt O43924)
Assay: co-IP

- binding: binds
Substance: ADP-ribosylation factor-like protein 2 (ARL2) (from UniProt P36404 1-184)
